From US20230293405A1, “Compositions Comprising UV-Filters and One or More (Bio)-Alkanediols” (Symrise AG, priority 2020, published 2023)

Assay: Sensory properties of oil component blended with alkanediol, assessed by untrained panelists on the backside of the hand
Type: in vivo
Conditions: for Spreading with: 30 s after application; for Spreading with / Fatty/greasy skin feeling with: scale 1 (low) to 5 (high); for Fatty/greasy skin feeling with: after 2 minutes; for Fatty/greasy skin feeling Delta / Spreading Delta: with vs without alkanediol
Excerpt: For evaluating the sensory behavior, oil components specified in the following Table 13 were blended with 1,2-heptanediol or 2,3-heptanediol or a mixture of 1,2-heptanediol and 2,3-heptanediol or 1,2-octanediol or 2,3-octanediol or a mixture of 1,2-octanediol and 2,3-octanediol (formulation) and assessed by untrained panelists in comparison to the oil component without addition of the specified alkanediols (placebo).
Test procedure: • Hands were pre-washed with liquid soap by following a defined procedure; • 30 μl of corresponding sample was applied on the backside of each hand (randomized); • After 30 s the spreading behavior of the respective formulation on skin was evaluated versus the respective oil component without 1,2-heptanediol on a scale from 1 to 5 (1=low spreading; 5=high spreading); • The samples were distributed with the fingertips of middle and forefinger with 2×5 cycles; • After 2 minutes, the fatty/greasy skin feeling was evaluated on a scale from 1 to 5 (1=low fatty/greasy skin feeling; 5=high fatty/greasy skin feeling); • Furthermore, the applicants were asked to assess the absorption, i.e. the impression of amount of remaining residue on the skin on a scale from 1 to 5 (1=low absorption; 5=high absorption).

[1] = in Helianthus Annuus (Sunflower) Seed Oil
[2] = in Caprylic Capric Triglyceride (neutral oil)

Row | Structure (SMILES) | Spreading with (in Argan Oil) | Fatty/greasy skin feeling with (in Argan Oil) | Fatty/greasy skin feeling Delta (in Argan Oil) | Spreading Delta (in Argan Oil) | Spreading with (in Avocado Oil) | Fatty/greasy skin feeling with (in Avocado Oil) | Fatty/greasy skin feeling Delta (in Avocado Oil) | Spreading Delta (in Avocado Oil) | Spreading with (in Cacao butter) | Fatty/greasy skin feeling with (in Cacao butter) | Fatty/greasy skin feeling Delta (in Cacao butter) | Spreading Delta (in Cacao butter) | Spreading with (in Castor Oil) | Fatty/greasy skin feeling with (in Castor Oil) | Fatty/greasy skin feeling Delta (in Castor Oil) | Spreading Delta (in Castor Oil) | Spreading with (in Coconut Oil) | Fatty/greasy skin feeling with (in Coconut Oil) | Fatty/greasy skin feeling Delta (in Coconut Oil) | Spreading Delta (in Coconut Oil) | other results
1 | CCCCCC(O)C(C)O (stereo not shown) [2,3-octanediol] | 3.4 | 2.4 | 1.6 | 1.4 | 3.2 | 2.8 | 1 | 1.2 | 3 | 3 | 1.2 | 1.2 | 1.8 | 2.8 | 1.4 | 0.6 | 4.2 | 2.2 | 1.4 | 1.8 | Spreading with (in Grapeseed Oil): 2.8; Fatty/greasy skin feeling with (in Grapeseed Oil): 2.8; Fatty/greasy skin feeling Delta (in Grapeseed Oil): 1.4; Spreading Delta (in Grapeseed Oil): 0.8; Spreading with [1]: 3.4; Fatty/greasy skin feeling with [1]: 3; Fatty/greasy skin feeling Delta [1]: 0.8; Spreading Delta [1]: 2; Spreading with (in Olive Oil): 3.2; Fatty/greasy skin feeling with (in Olive Oil): 2.4; Fatty/greasy skin feeling Delta (in Olive Oil): 1.4; Spreading Delta (in Olive Oil): 0.8
2 | CCCCCCC(O)CO (stereo not shown) [1,2-octanediol] | 3.8 | 2.6 | 1.4 | 1.8 | 4 | 3 | 0.8 | 2 | 3.8 | 3.2 | 1 | 2 | 1.6 | 3.6 | 0.6 | 0.4 | 4.4 | 2.6 | 1 | 2 | Spreading with (in Grapeseed Oil): 4; Fatty/greasy skin feeling with (in Grapeseed Oil): 2.8; Fatty/greasy skin feeling Delta (in Grapeseed Oil): 1.4; Spreading Delta (in Grapeseed Oil): 2; Spreading with [1]: 4.2; Fatty/greasy skin feeling with [1]: 2; Fatty/greasy skin feeling Delta [1]: 1.8; Spreading Delta [1]: 2.8; Spreading with (in Olive Oil): 4.2; Fatty/greasy skin feeling with (in Olive Oil): 2.6; Fatty/greasy skin feeling Delta (in Olive Oil): 1.2; Spreading Delta (in Olive Oil): 2
3 | CCCCC(O)C(C)O (stereo not shown) [2,3-heptanediol] | 3 | 2.6 | 1.4 | 1 | 3.8 | 2 | 1.8 | 1.6 | 3 | 3.4 | 0.8 | 1.2 | 1.6 | 3.6 | 0.6 | 0.4 | 3.4 | 2.4 | 0.8 | 1 | Spreading with [2]: 3.6; Fatty/greasy skin feeling with [2]: 3.4; Fatty/greasy skin feeling Delta [2]: −0.2; Spreading Delta [2]: 1.7; Spreading with (in Grapeseed Oil): 3.6; Fatty/greasy skin feeling with (in Grapeseed Oil): 2.6; Fatty/greasy skin feeling Delta (in Grapeseed Oil): 1.6; Spreading Delta (in Grapeseed Oil): 1.6; Spreading with [1]: 3.8; Fatty/greasy skin feeling with [1]: 2.6; Fatty/greasy skin feeling Delta [1]: 1; Spreading Delta [1]: 2.2; Spreading with (in Olive Oil): 4; Fatty/greasy skin feeling with (in Olive Oil): 2.2; Fatty/greasy skin feeling Delta (in Olive Oil): 1.6; Spreading Delta (in Olive Oil): 1.8
